# Whole data set: some 33,000 sequences, median “E-score (-0.5 to 0.5)” near -0.0014, cut for the highest 2% near 0.25. The list shows a part of the results.
# Target: T1, Cad1 (UniProt P24813)
# T1 sequence: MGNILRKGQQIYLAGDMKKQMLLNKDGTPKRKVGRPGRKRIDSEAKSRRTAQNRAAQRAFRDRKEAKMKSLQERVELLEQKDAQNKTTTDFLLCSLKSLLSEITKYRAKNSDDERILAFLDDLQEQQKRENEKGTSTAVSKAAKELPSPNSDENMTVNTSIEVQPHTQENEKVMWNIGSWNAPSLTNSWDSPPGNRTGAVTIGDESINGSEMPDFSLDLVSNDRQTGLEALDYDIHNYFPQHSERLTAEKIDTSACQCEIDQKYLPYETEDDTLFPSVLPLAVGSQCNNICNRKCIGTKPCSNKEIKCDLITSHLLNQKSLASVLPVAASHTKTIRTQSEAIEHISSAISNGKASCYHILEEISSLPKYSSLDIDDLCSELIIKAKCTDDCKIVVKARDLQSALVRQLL
# Assay: PBM E-score (8-mer binding enrichment) (E-score (-0.5 to 0.5)); higher = stronger / more preferred TF binding
# Conditions: protein concentration: 100 nM; construct: GST-full length
# Description: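 Universal 'all 10-mer' protein binding microarrays (Agilent AMADID 015681) probed with GST-tagged S. cerevisiae TFs (full-length or DBD) made by in vitro transcription/translation (PURExpress), about 100-200 nM. Bound TF was detected with fluorescent anti-GST. Each ungapped 8-mer (which stands for itself and its reverse complement) is scored by the PBM enrichment score (E-score), a modified Wilcoxon-Mann-Whitney statistic from -0.5 to +0.5, computed with the Universal PBM Analysis Suite. Scale: above 0.35 generally sequence-specific binding.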
row,Sequence,PBM E-score
1,CGCCCACA,0.0534
2,ATAAGCCA,0.063
3,CTATTGAC,0.0653
4,CGTAAGAA,0.014
5,AAGGTAGC,-0.123
6,CCTGCACG,-0.0479
7,ATGCTACA,-0.0425
8,AGTATAGC,0.059
9,GATAATCC,0.0936
10,AGAGCTGC,-0.127
11,AACCAAGC,0.03
12,ATGCGTGA,0.0985
13,ATGCTGTC,0.0175
14,GCTCACGA,-0.0415
15,GATTGTCC,0.0989
16,CCGCCGGA,0.0323
17,CTATGGTA,-0.00468
18,ACAATATC,0.185
19,CGGTCGGA,-0.00223
20,ACAGTTAC,0.0388
21,AACCACGC,0.00303
22,CGCGTACA,-0.008
23,AGTGCGTC,-0.0502
24,GACCATAA,0.0834
25,CGTAGACC,-0.216

row,Sequence,PBM E-score
1,TAAAGGAA,-0.0537
2,CTTACAGC,0.0994
3,CCACTCAG,-0.085
4,CAACGGAG,-0.0641
5,CCCCGGAC,-0.244
6,CACCCGGA,0.0199
7,GGAGGGAC,-0.17
8,CAGGACTG,-0.0875
9,CTTACTAC,0.0721
10,ATCGCCCC,-0.262
11,CGATAGAC,0.0203
12,ATTTTTGG,0.0896
13,ACTAGTGC,0.0304
14,CACACCCA,0.0321
15,ACACTAAC,0.199
16,CCGACGTA,-0.19
17,GTACTAAA,0.054
18,CCTCCTAC,-0.242
19,GTCTCCAA,0.0244
20,CCTTCATA,0.037
21,GCCCCGCC,0.168
22,CGTCGTGA,-0.0592
23,ACTAACGA,0.178
24,GTGCGCAA,0.0688
25,ACCTTTGG,-0.31

row,Sequence,PBM E-score
1,GAGTTAGC,0.119
2,AGGGGACT,-0.179
3,GCAACTAA,0.139
4,CGTTTCGC,0.0794
5,TCCCTCGA,-0.025
6,CGAACGCG,0.138
7,CAAGAAGC,0.0604
8,AGGCCTCA,-0.24
9,AGTAAACA,0.182
10,GTCGTCTA,-0.0931
11,CAGCATGG,0.0302
12,GAAATACC,0.157
13,GAAGCCCC,-0.22
14,CAGCGAGC,0.159
15,ATAGGAAT,-0.0155
16,AGGCAGGG,-0.133
17,AGGAGAGG,-0.343
18,CTCTGTAC,-0.0443
19,ATCAGAAT,0.0378
20,CTACGTTC,-0.115
21,ACGCACCC,-0.147
22,AGCAATCA,0.216
23,GAACGCTC,0.0305
24,AGCCCGCC,-0.0425
25,ATATGACC,-0.0229

row,Sequence,PBM E-score
1,CTTCATGA,0.207
2,ACTAACTG,0.0989
3,GACATACA,0.174
4,ACCCTCGG,-0.201
5,CATACTGA,0.103
6,CATTTGTC,0.169
7,GTAGAGGA,-0.258
8,CATGAGGG,-0.323
9,GCCAGAGA,-0.0334
10,AAGGAGGA,-0.254
11,GAAGGTTA,-0.00292
12,GCCACTGA,-0.213
13,CCCTTGAG,0.0254
14,ATAACTTC,0.144
15,AACGTCTA,0.0127
16,GGAAAATA,0.17
17,GAGCCTGA,-0.0223
18,CCATAACG,0.00169
19,AAATACCT,0.0991
20,CCTATTGC,0.0226
21,CGACCTGA,0.0131
22,GATCCCAA,-0.137
23,AAATTCTC,-0.0714
24,GCATGGGA,-0.212
25,ACACTGGA,0.182

row,Sequence,PBM E-score
1,GCTGTATA,0.0801
2,AATCAGCG,0.211
3,AACGCCGT,0.0733
4,CGCTAGAA,-0.0833
5,ATGGCGGG,0.143
6,GCGTCTAA,-0.0676
7,AAATACTC,0.0948
8,CGAGAGGC,-0.243
9,ACCTACCA,-0.17
10,AGGTCGCG,0.117
11,TCGTGGCA,0.102
12,CGACTTCC,-0.0468
13,GCGCTTAA,0.106
14,CGGCAGCA,-0.0735
15,AGACAAGG,-0.0828
16,GTCCGCAA,0.141
17,ATGGCAGG,0.0752
18,GCCTTTCA,-0.131
19,GGAGTCAC,-0.265
20,CGCAGCTC,-0.0491
21,ATGGGCGA,-0.274
22,ACTATGAA,0.0148
23,ATTTCACG,0.189
24,AGACTAAG,-0.13
25,ATTGAATC,-0.0423

row,Sequence,PBM E-score
1,AGAGAAGG,-0.176
2,CGGAACCC,0.0865
3,GAGCTTGA,0.0153
4,ACCTGCTA,0.027
5,GCCTGGAC,-0.0433
6,AAGGTTTC,0.0554
7,ACTTATCC,0.0942
8,AGTTGAGG,-0.125
9,GTGGCACA,-0.208
10,AGGTTGGC,-0.143
11,CAGGAGCC,-0.21
12,AGTGCGCA,0.17
13,ACTACGAT,0.0898
14,ATGCGCCG,0.0273
15,CCGATGAA,0.137
16,TAGCCCGA,-0.0105
17,CTGGTTCC,-0.00859
18,GCCGGCGC,0.212
19,CTTTTTTC,-0.13
20,AGTGTACC,-0.115
21,CCCGAAGC,-0.0644
22,TACTGCCA,-0.103
23,CACTTATG,0.175
24,GACCCAGA,-0.0356
25,AGAGTCCT,-0.251

row,Sequence,PBM E-score
1,GATCCTGC,0.0302
2,ACCAGAGT,-0.182
3,ATTAAAAC,0.108
4,GCGCCAAC,0.145
5,CGCGGGAG,-0.0438
6,TCTTCTCA,-0.0244
7,AACAGACA,0.187
8,AGATGCAA,-0.0727
9,AACAGCAG,0.0283
10,GACAGACC,-0.0425
11,CAATTCCG,0.192
12,ATCACGAC,0.132
13,CGTATCAA,0.0137
14,GCACTTGA,0.0277
15,AACAATAG,-0.183
16,CTGATCAG,0.153
17,AGATTCTC,-0.145
18,ACATAAGA,0.165
19,ATTGTCGA,-0.00986
20,AATGCAGG,-0.0263
21,CACATGTC,0.0392
22,ACACCTTA,0.112
23,ATGCGCTC,-0.0149
24,TGATTCCA,-0.114
25,AAGTTTAG,-0.00022

row,Sequence,PBM E-score
1,CACCGCGC,0.0105
2,AGGGTTTG,-0.123
3,CGGTTTGA,0.0875
4,ATTCTGAA,0.152
5,ATCACACG,0.0774
6,CATCGTCC,0.0486
7,GCGGCCGA,0.0504
8,CAGGAGCA,-0.0281
9,TAAATAGA,-0.152
10,AGCGACTG,-0.0466
11,ACACAGCA,0.076
12,AAGACTGC,-0.182
13,AGGCGATC,-0.198
14,AAGATCCC,-0.00524
15,ACCGCGAT,0.174
16,GAGTTCAA,-0.0322
17,CCACATGC,0.111
18,ATTACACA,0.284
19,CGTGGTGC,-0.202
20,ATTGGTGA,-0.125
21,GGATGAGA,0.188
22,CTGAATCC,-0.023
23,GGGCGGCA,-0.224
24,ACTTAGGG,-0.0989
25,AAAGATTG,-0.04

# Shown bar-delimited: part of the list above.
row | Sequence | PBM E-score
21 | CGACCTGA | 0.0131
22 | GATCCCAA | -0.137
23 | AAATTCTC | -0.0714
24 | GCATGGGA | -0.212
25 | ACACTGGA | 0.182
1 | GCTGTATA | 0.0801
2 | AATCAGCG | 0.211
3 | AACGCCGT | 0.0733
4 | CGCTAGAA | -0.0833
5 | ATGGCGGG | 0.143
6 | GCGTCTAA | -0.0676
7 | AAATACTC | 0.0948
8 | CGAGAGGC | -0.243
9 | ACCTACCA | -0.17
10 | AGGTCGCG | 0.117
11 | TCGTGGCA | 0.102
12 | CGACTTCC | -0.0468
13 | GCGCTTAA | 0.106
14 | CGGCAGCA | -0.0735
15 | AGACAAGG | -0.0828
16 | GTCCGCAA | 0.141
17 | ATGGCAGG | 0.0752
18 | GCCTTTCA | -0.131
19 | GGAGTCAC | -0.265
20 | CGCAGCTC | -0.0491
21 | ATGGGCGA | -0.274
22 | ACTATGAA | 0.0148
23 | ATTTCACG | 0.189
24 | AGACTAAG | -0.13
25 | ATTGAATC | -0.0423
1 | AGAGAAGG | -0.176
2 | CGGAACCC | 0.0865
3 | GAGCTTGA | 0.0153
4 | ACCTGCTA | 0.027
5 | GCCTGGAC | -0.0433
6 | AAGGTTTC | 0.0554
7 | ACTTATCC | 0.0942
8 | AGTTGAGG | -0.125
9 | GTGGCACA | -0.208
10 | AGGTTGGC | -0.143
11 | CAGGAGCC | -0.21
12 | AGTGCGCA | 0.17
13 | ACTACGAT | 0.0898
14 | ATGCGCCG | 0.0273
15 | CCGATGAA | 0.137
16 | TAGCCCGA | -0.0105
17 | CTGGTTCC | -0.00859
18 | GCCGGCGC | 0.212
19 | CTTTTTTC | -0.13
20 | AGTGTACC | -0.115

# Continuation:

row,Sequence,PBM E-score
1,CGGTTTGC,-0.021
2,GTCATTTA,0.00473
3,CATGGTGC,-0.0572
4,AGGAATCG,0.162
5,CCGAGCGG,-0.139
6,AGCCTCAG,-0.0332
7,GCACTAAA,0.191
8,GGCGAATA,0.0973
9,GTTAACGA,0.00451
10,ACTGGACG,-0.0529
11,CAGCTGGA,0.171
12,ACCAGAGA,0.0407
13,AGATTGTC,-0.0366
14,GGAGTCAA,-0.136
15,AAGGCTCC,-0.36
16,CCGACCCC,-0.372
17,AACGAACG,0.0769
18,CTTGTCTA,0.00616
19,CTCTGCGA,0.0717

# — the supplement of paper PMC3334620
